The target in assay [1] is T1, hexa-histidine tagged PsMT2 (Papaver somniferum, UniProt I3PLQ6 1-356).
T1 construct: PsMT2, O-methyltransferase of the noscapine gene cluster of Papaver somniferum; gene codon-optimised for S. cerevisiae, amplified with primers PsMT2-pET-F/R and inserted into pET28a; Printed mass of the His-tagged protein is 40.09 kDa; also called His-tagged PsMT2; source: E. coli BL21(DE3), co-expressed with T7-tagged PsMT3 or Ps6OMT; complex purified (Ni-NTA agarose, then T7 tag antibody …)
T1 sequence (looked up): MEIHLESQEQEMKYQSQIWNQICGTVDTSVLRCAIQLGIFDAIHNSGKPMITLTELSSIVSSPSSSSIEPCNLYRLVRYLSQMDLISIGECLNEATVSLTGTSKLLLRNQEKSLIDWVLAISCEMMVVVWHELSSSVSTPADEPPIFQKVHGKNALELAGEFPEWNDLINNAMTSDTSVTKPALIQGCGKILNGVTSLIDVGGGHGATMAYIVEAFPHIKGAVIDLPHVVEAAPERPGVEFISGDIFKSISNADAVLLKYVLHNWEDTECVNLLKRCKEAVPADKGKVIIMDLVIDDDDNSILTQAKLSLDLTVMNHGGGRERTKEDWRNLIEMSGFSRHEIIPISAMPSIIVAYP
Kind of assay: SEC; purified complex on a BioSep-SEC-s4000 column, 300 mM NaCl in 100 mM sodium phosphate buffer, pH 7.5, 1 ml/min; calibrated with protein standards of 12.4-200 kDa; both purified. (In general: Size exclusion chromatography separates by hydrodynamic size, large species first.)

Assay [2] addresses T1, hexa-histidine tagged PsMT2. Kind of assay: pull-down; tandem affinity co-purification from lysate of E. coli co-expressing both proteins: Ni-NTA agarose (His-tagged PsMT2), eluate then on T7 tag antibody agarose (T7-tagged partner); product analysed by SDS-PAGE and western blot with Anti-6X His tag and Anti-T7 tag antibodies.

Our source for the binding values is paper PMC4935968, “Engineering biosynthesis of the anticancer alkaloid noscapine in yeast” (Nature Communications, 2016).

Results are given in words; binding and its absence hold for the method and conditions named. For some assays here: Binding seen in cells or lysates may run through a third protein. Some entries that bind do so weakly or less than the wild type. Tags and fused reporters may be left off the sequences shown.

B1: T7-tagged PsMT3 (enzyme, UniProt I3PLQ7 1-339)
chain: MEVVSKIDQENQAKIWKQIFGFAESLVLKCAVQLEIAETLHNNVKPMSLSELASKLPAQPVNEDRLYRILHFLVHMKLFNKDATTQKYSLAPPAKYLLKGWEKSMVPSILSVTDKDFTAPWNHLGDGLTGNCNAFEKALGKGIRVYMRENPEKDQLFNEGMACDTRLFASALVNECKSIFSDGINTLAGVGRGTGTAVKAISKAFPDIKCTIHDLPEVTSKNSKIPRDVFKSVPSADAIFMKSILHEWNDEECIQILKRCKEAIPKGGKVIIADVVIDMDSTHPYSKSRLAMDLAMMLHTGGKERTEEDWKKLIDAAGFASCKITKLSALQSVIEAYPH
Turning to B1, the binding result in assay [1] and in assay [2] was “binds” in each case.
